Taken from: PubChem BioAssay AID1259425 (University of Nebraska Medical Center, 2018)

Screen: 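Compare each knockdown with KSR1 silencing using changes in marker transcripts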 (primary screen)
System: HCT116 human colon cancer cells
Knock-down reagent: siRNA pool against human genes, 50 nM siRNA
Measured: 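After 50 nM siRNA pool, branched-DNA assay measures six marker transcripts per well, minus blank, normalised to the geometric mean of two housekeeping transcripts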
Reading the numbers: BNIP3L mRNA: higher = more BNIP3L transcript after knockdown; NDRG1 mRNA: higher = more NDRG1 transcript after knockdown; BNIP3 mRNA: higher = more BNIP3 transcript after knockdown; ALDOC mRNA: higher = more ALDOC transcript after knockdown; ACSL5 mRNA: higher = more ACSL5 transcript after knockdown
In all, the deposit lists about 14,000 reagents; shown is a random part of them. No sequences are given here. Not given: the time to read-out.

| gene | BNIP3L mRNA, set 1 | NDRG1 mRNA, set 1 | BNIP3 mRNA, set 1 | ALDOC mRNA, set 1 | ACSL5 mRNA, set 1 |
| --- | --- | --- | --- | --- | --- |
| TM4SF4 | 0.122 | 0.201 | 0.21 | 0.0443 | 0.35 |
| IRF8 | 0.0992 | 0.0237 | 0.237 | 0.00476 | 0.152 |
| OR6A2 | 0.166 | 0.285 | 0.329 | 0.0476 | 0.138 |
| DELEC1 | 0.11 | 0.174 | 0.377 | 0.02 | 0.116 |
| MPPED1 | 0.204 | 0.963 | 0.315 | 0.0199 | 0.213 |
| PDP2 | 0.0924 | 0.149 | 0.372 | 0.0402 | 0.19 |
| JMJD7-PLA2G4B | 0.1 | 0.144 | 0.239 | 0.0242 | 0.244 |
| FBH1 | 0.174 | 0.326 | 0.434 | 0.0354 | 0.138 |
| BRAP | 0.0504 | 0.131 | 0.268 | 0.0183 | 0.138 |
| AMFR | 0.143 | 0.216 | 0.445 | 0.0589 | 0.0961 |
| UBA3 | 0.0947 | 0.301 | 0.263 | 0.0218 | 0.123 |
| HDC | 0.0917 | 0.208 | 0.129 | 0.0268 | 0.285 |
| TCN1 | 0.077 | 0.187 | 0.285 | 0.0098 | 0.142 |
| CBLC | 0.0469 | 0.185 | 0.409 | 0.0189 | 0.252 |
| GNAO1 | 0.168 | 0.231 | 0.431 | 0.0185 | 0.175 |
| TSPAN14 | 0.19 | 0.217 | 0.275 | 0.0618 | 0.185 |
| SLC39A8 | 0.0838 | 0.0947 | 0.348 | 0.0164 | 0.146 |
| H2BC11 | 0.0821 | 0.203 | 0.245 | 0.0289 | 0.0901 |
| FOXK2 | 0.136 | 0.33 | 0.28 | 0.0328 | 0.167 |
| BAHCC1 | 0.0492 | 0.166 | 0.289 | 0.0208 | 0.274 |
| KLK5 | 0.132 | 0.424 | 0.677 | 0.0901 | 0.137 |
| GP2 | 0.113 | 0.114 | 0.33 | 0.0321 | 0.141 |
| CASZ1 | 0.0984 | 0.247 | 0.213 | 0.0107 | 0.172 |
| TMEM38A | 0.153 | 0.238 | 0.484 | 0.0475 | 0.223 |
| SRGAP2 | 0.0741 | 0.0963 | 0.264 | 0.0277 | 0.118 |
| MAP3K9 | 0.491 | 0.0484 | 0.594 | 0.0285 | 0.0747 |
| CXCR1 | 0.136 | 0.192 | 0.329 | 0.0726 | 0.349 |
| TAF4 | 0.0796 | 0.0656 | 0.274 | 0.0113 | 0.116 |
| ZMYM5 | 0.179 | 0.218 | 0.289 | 0.0351 | 0.126 |
| NUDT6 | 0.0568 | 0.119 | 0.315 | 0.00548 | 0.291 |
| PI4KB | 0.0412 | 0.217 | 0.397 | 0.0117 | 0.344 |
| BRCC3 | 0.187 | 0.482 | 0.301 | 0.0594 | 0.205 |
| FAM117A | 0.261 | 0.0917 | 0.431 | 0.0594 | 0.0641 |
| EFR3A | 0.122 | 0.136 | 0.307 | 0.0846 | 0.162 |
| ATP1B2 | 0.0622 | 0.176 | 0.232 | 0.0192 | 0.216 |
| ACOXL | 0.13 | 0.258 | 0.541 | 0.0976 | 0.29 |
| KIF3A | 0.0696 | 0.189 | 0.244 | 0.0333 | 0.193 |
| HNRNPA0 | 0.177 | 0.225 | 0.242 | 0.0287 | 0.151 |
| LOC51212 (retired record) | 0.0751 | 0.196 | 0.479 | 0.00992 | 0.409 |
| MT-ND4L | 0.264 | 0.716 | 0.399 | 0.042 | 0.265 |
| VCX3A | 0.119 | 0.15 | 0.309 | 0.0174 | 0.109 |
| KIN | 0.135 | 0.0906 | 0.345 | 0.0165 | 0.204 |
| GTF2F1 | 0.07 | 0.209 | 0.19 | 0.0248 | 0.128 |
| EGR3 | 0.0855 | 0.0438 | 0.366 | 0.0105 | 0.19 |
| TYK2 | 0.12 | 0.00927 | 0.321 | -0.00111 | 0.13 |
| SCAF1 | 0.816 | 0.967 | 1.92 | 0.201 | 0.251 |
| ELP2 | 0.0865 | 0.254 | 0.349 | 0.0234 | 0.135 |
| NDUFA9 | 0.0909 | 0.304 | 0.337 | 0.0546 | 0.147 |
| TMED5 | 0.171 | 0.764 | 0.546 | 0.031 | 0.232 |
| IFT88 | 0.0922 | 0.112 | 0.329 | 0.0407 | 0.139 |
| CDC25C | 0.137 | 0.307 | 0.369 | 0.0427 | 0.463 |
| PLXDC1 | 0.186 | 0.21 | 0.698 | 0.155 | 0.437 |
| POU2F1 | 0.0932 | 0.271 | 0.292 | 0.0132 | 0.298 |
| ZBED4 | 0.0956 | 0.154 | 0.188 | 0.0555 | 0.225 |
| DNASE1L3 | 0.0514 | 0.205 | 0.289 | 0.011 | 0.354 |
| RBFOX1 | 0.192 | 0.1 | 0.256 | 0.0668 | 0.149 |
| CDK13 | 0.0867 | 0.225 | 0.222 | 0.00505 | 0.138 |
| RPL26L1 | 0.115 | 0.122 | 0.533 | 0.0401 | 0.102 |
| PSMD1 | 0.515 | 1.09 | 0.558 | 0.176 | 0.169 |
| CLN5 | 0.19 | 0.221 | 0.501 | 0.0556 | 0.27 |
| CENPN | 0.193 | 0.229 | 0.397 | 0.0397 | 0.2 |
| SYNDIG1 | 0.0745 | 0.648 | 0.547 | 0.0701 | 0.12 |
| QRICH1 | 0.0747 | 0.135 | 0.434 | 0.0235 | 0.237 |

In a second layout: entries from further up
{"gene": "TM4SF4", "BNIP3L mRNA, set 1": 0.122, "NDRG1 mRNA, set 1": 0.201, "BNIP3 mRNA, set 1": 0.21, "ALDOC mRNA, set 1": 0.0443, "ACSL5 mRNA, set 1": 0.35}
{"gene": "IRF8", "BNIP3L mRNA, set 1": 0.0992, "NDRG1 mRNA, set 1": 0.0237, "BNIP3 mRNA, set 1": 0.237, "ALDOC mRNA, set 1": 0.00476, "ACSL5 mRNA, set 1": 0.152}
{"gene": "OR6A2", "BNIP3L mRNA, set 1": 0.166, "NDRG1 mRNA, set 1": 0.285, "BNIP3 mRNA, set 1": 0.329, "ALDOC mRNA, set 1": 0.0476, "ACSL5 mRNA, set 1": 0.138}
{"gene": "DELEC1", "BNIP3L mRNA, set 1": 0.11, "NDRG1 mRNA, set 1": 0.174, "BNIP3 mRNA, set 1": 0.377, "ALDOC mRNA, set 1": 0.02, "ACSL5 mRNA, set 1": 0.116}
{"gene": "MPPED1", "BNIP3L mRNA, set 1": 0.204, "NDRG1 mRNA, set 1": 0.963, "BNIP3 mRNA, set 1": 0.315, "ALDOC mRNA, set 1": 0.0199, "ACSL5 mRNA, set 1": 0.213}
{"gene": "PDP2", "BNIP3L mRNA, set 1": 0.0924, "NDRG1 mRNA, set 1": 0.149, "BNIP3 mRNA, set 1": 0.372, "ALDOC mRNA, set 1": 0.0402, "ACSL5 mRNA, set 1": 0.19}
{"gene": "JMJD7-PLA2G4B", "BNIP3L mRNA, set 1": 0.1, "NDRG1 mRNA, set 1": 0.144, "BNIP3 mRNA, set 1": 0.239, "ALDOC mRNA, set 1": 0.0242, "ACSL5 mRNA, set 1": 0.244}
{"gene": "FBH1", "BNIP3L mRNA, set 1": 0.174, "NDRG1 mRNA, set 1": 0.326, "BNIP3 mRNA, set 1": 0.434, "ALDOC mRNA, set 1": 0.0354, "ACSL5 mRNA, set 1": 0.138}
